{
  "sequences": {"note": "The chains behind the UniProt entries cited, without tags or fusion partners. Residues count along the entry.", "UniProt P07949, 29-1114 V804M": "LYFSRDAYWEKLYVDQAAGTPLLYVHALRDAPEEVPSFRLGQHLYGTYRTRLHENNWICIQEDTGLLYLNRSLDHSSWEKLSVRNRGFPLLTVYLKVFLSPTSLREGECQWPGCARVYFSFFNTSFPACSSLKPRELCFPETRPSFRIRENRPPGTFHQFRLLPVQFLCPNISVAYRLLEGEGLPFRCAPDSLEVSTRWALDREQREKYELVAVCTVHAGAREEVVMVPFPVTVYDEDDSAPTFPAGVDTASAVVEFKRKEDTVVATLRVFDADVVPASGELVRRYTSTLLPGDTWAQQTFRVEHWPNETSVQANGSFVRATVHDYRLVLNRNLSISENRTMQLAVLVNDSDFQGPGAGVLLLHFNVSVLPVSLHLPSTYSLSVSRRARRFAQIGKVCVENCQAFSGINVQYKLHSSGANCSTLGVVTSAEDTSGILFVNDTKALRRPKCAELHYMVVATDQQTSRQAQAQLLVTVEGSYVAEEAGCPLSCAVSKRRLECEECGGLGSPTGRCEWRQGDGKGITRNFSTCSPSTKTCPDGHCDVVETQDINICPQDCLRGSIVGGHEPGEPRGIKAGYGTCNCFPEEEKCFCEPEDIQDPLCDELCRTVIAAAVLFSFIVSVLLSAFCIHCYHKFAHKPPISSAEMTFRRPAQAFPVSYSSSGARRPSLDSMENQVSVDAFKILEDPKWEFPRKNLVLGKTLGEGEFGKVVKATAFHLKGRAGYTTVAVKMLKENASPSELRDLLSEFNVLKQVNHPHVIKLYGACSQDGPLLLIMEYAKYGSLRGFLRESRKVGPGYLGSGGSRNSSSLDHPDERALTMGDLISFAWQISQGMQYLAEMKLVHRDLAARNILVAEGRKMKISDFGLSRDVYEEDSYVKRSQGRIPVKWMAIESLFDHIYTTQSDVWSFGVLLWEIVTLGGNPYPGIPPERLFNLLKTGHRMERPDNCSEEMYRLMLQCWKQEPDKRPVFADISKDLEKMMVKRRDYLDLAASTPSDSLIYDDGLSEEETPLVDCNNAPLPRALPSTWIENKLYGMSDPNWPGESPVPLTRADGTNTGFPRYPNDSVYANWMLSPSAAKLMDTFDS"},
  "source": "patent US12338253B2",
  "about": "“Nitrogen-containing polycyclic fused ring compound, pharmaceutical composition thereof, preparation method therefor and use thereof” (APPLIED PHARMACEUTICAL SCIENCE, INC., priority 2019, dated 2025)",
  "key": {"RET V804M": {"molecular_target": "RET V804M (Homo sapiens (Human), UniProt P07949, V804M)", "assay": "HTRF kinase activity test, RET V804M", "assay_type": "biochemical", "details": "comparison in words"}, "TT Cell": {"test_system": "TT Cell", "assay": "TT cell activity test (CelltiterGlo, 72 h)", "assay_type": "cell-based, human", "details": "comparison in words", "experimental": "2.3 Data Processing % Inhibition (inhibition rate)=100*(HC−test compound well reading)/(HC−LC) • High control (HC, reading control without inhibition): 0.5% DMSO • Low control (LC, control with compound inhibition): 1 μM CEP-32496\nThe IC50 values were calculated using GraphPad Prism 6 software. Y=Bottom+(Top−Bottom)/(1+10^((Log IC50−X)*HillSlope)); • X: log of cpd concentration; • Y: % inhibition; • Top and Bottom: plateaus in same units as Y; • Log IC50: same log units as X; and • HillSlope: slope factor The Cell Results are Shown in Table 5: […]"}},
  "note": "For at least one compound, name, drawing or mass did not settle the structure.",
  "data": [
    {"molecule": "COc1ccc(CN2C3CC2CN(c2ccc(-c4cc(OC[C@@H]5CNCCO5)cn5nc6[nH]ncc6c45)cn2)C3)cn1", "note": "[Compound 17]", "values": [
      {"measurement": "inhibitory activity on RET V804M compared with cabozantinib", "setting": "RET V804M", "result": "significantly better than that of cabozantinib"},
      {"measurement": "inhibitory activity on TT cells compared with cabozantinib", "setting": "TT Cell", "result": "significantly better than that of cabozantinib"}
    ]}
  ]
}
